# Counter-ions that a name gives are not always drawn. Like-named read-outs stand apart in the source and are kept apart here. Among all 3,300 compounds or so, about 60 (2%) showed an effect of 50% or more. Some of the results follow.
# Test system: HCoV-OC43
# Set-up: species or system RD; HTS, protection from HCoV-OC43 induced cell death, luminescent cell viability (CellCounting-Lite 2.0), inhibition rate
# Settings: 24 h post infection, 1 h compound pre-incubation, 10 µM, inhibitor
SMILES,OC43 Inhibition rate [%],"OC43 Inhibition rate (OC43 Inhibition rate, 24 h) [%]"
COc1ccc([C@@H]2CC(=O)c3c(O)cc(O[C@@H]4O[C@H](CO[C@@H]5O[C@@H](C)[C@H](O)[C@@H](O)[C@H]5O)[C@@H](O)[C@H](O)[C@H]4O)cc3O2)cc1O [Hesperidin],-0.1,
COC(=O)[C@@H](Cc1ccc(O)c(O)c1)OC(=O)/C=C/c1ccc(O)c(O)c1 [Methyl rosmarinate],6.3,
O=C(/C=C/c1ccc(O)c(O)c1)OC[C@H]1O[C@@H](OCCc2ccc(O)c(O)c2)[C@H](O)[C@@H](O)[C@@H]1O [Calceolarioside B],4.7,
COc1ccc2cc3n(c(=O)c2c1OC)CCc1cc2c(cc1-3)OCO2 [Oxyberberine],58.7,
C=C1C(=O)[C@@]23[C@@H]4OC5O[C@@]2(O)[C@@H](O)[C@@H]2C(C)(C)CC[C@@H](O)[C@]52[C@@H]3CC[C@@H]14 [ponicidin],75.9,
CCC(C)c1nccnc1OC (stereo not drawn) [2-Sec-butyl-3-methoxypyrazine],-0.4,
C[C@@H]1O[C@@H](O[C@H]2[C@H](OC(=O)[C@]34CCC(C)(C)C[C@H]3C3=CC[C@@H]5[C@@]6(C)C[C@H](O)[C@H](O[C@@H]7O[C@H](CO)[C@@H](O)[C@H](O[C@@H]8O[C@H](CO)[C@@H](O)[C@H](O)[C@H]8O)[C@H]7O)C(CO)(CO)[C@@H]6CC[C@@]5(C)[C@]3(C)C[C@H]4O)OC[C@H](O)[C@@H]2O)[C@H](O)[C@H](O)[C@H]1O[C@@H]1OC[C@@H](O)[C@H](O[C@@H]2OC[C@](O)(CO)[C@H]2O)[C@H]1O [Platycodin D2],15.9,
CN1CCc2cc3c(cc2C1O)OCO3 (stereo not drawn) [Hydrastinine],,-0.3
CCCCCCCCCCCCCCC(=O)OC [Methyl pentadecanoate],-1.9,
Cc1c(C)c2c(c(C)c1O)CC[C@@](C)(CCCC(C)CCCC(C)CCCC(C)C)O2 (stereo in doubt) [rel-α-Vitamin E],5.5,
O=C(O)c1cccc(O)c1O [Pyrocatechuic acid],1.9,
O=c1ccc2ccc(O)cc2o1 [Umbelliferone],-0.3,
C=C1C(=O)O[C@@H]2/C=C(/C)[C@@H](OC(C)=O)C/C=C(/C=O)C[C@@H](OC(=O)/C(C)=C/CO)[C@@H]12 [Eupalinolide O],2.5,
COc1cc2c(cc1OC)[C@@H]1Cc3ccc(OC)c(OC)c3CN1CC2 [Tetrahydropalmatine (hydrochloride)],,0
O=c1[nH]cnc2c1ncn2[C@@H]1O[C@H](COP(=O)(O)OP(=O)(O)OP(=O)(O)O)[C@@H](O)[C@H]1O [Inosine-5'-triphosphate (trisodium salt)],-2.1,
CC(C)=CCC1=CC(=O)c2ccccc2C1=O [Deoxylapachol],3.8,
O=C(O)c1cccc2nc3ccccc3nc12 [Phenazine-1-carboxylic acid],1.9,
Nc1nc2c(ncn2[C@@H]2O[C@H](CO)[C@@H](O)[C@H]2O)c(=O)[nH]1 [Guanosine],-0.2,

SMILES,OC43 Inhibition rate [%],"OC43 Inhibition rate (OC43 Inhibition rate, 24 h) [%]"
C[C@@H](CO)[C@@H]1CC[C@@]2(CC[C@]3(C)[C@H](CC[C@@H]4[C@@]5(C)CC[C@H](O[C@@H]6O[C@H](CO)[C@@H](O)[C@H](O)[C@H]6O[C@@H]6O[C@H](CO)[C@@H](O)[C@H](O)[C@H]6O)[C@@](C)(CO[C@@H]6O[C@H](CO)[C@@H](O)[C@H](O)[C@H]6O)[C@@H]5CC[C@]43C)[C@H]2O)CO1 [Hosenkoside A],-0.1,
CC1(C)CC[C@]2(C)CC[C@]3(C)C(=CC[C@@H]4[C@@]5(C)CC[C@H](O)C(C)(C)[C@@H]5CC[C@]43C)[C@@H]2C1 [β-Amyrin],-0.2,
O=c1cc(-c2ccc(O)cc2)oc2cc(O)c([C@@H]3O[C@H](CO)[C@@H](O)[C@H](O)[C@H]3O)c(O)c12 [Isovitexin],0.4,
COC(=O)c1ccc(O)cn1 [Methyl 5-hydroxypyridine-2-carboxylate],-0.6,
CC(C)(O)C1Cc2cc3cc(-c4cc(O)cc(O)c4)oc3cc2O1 (stereo not drawn) [Moracin O],10.8,
COc1ccc(-c2oc3cc(O)cc(O)c3c(=O)c2O)cc1 [Kaempferide],0.6,
CC1=C(O)C(=O)C=C2C1=CC=C1[C@@]2(C)CC[C@@]2(C)[C@@H]3C[C@](C)(C(=O)O)CC[C@]3(C)CC[C@]12C [Tripterin],0.5,
CC(C)C(N)CC(=O)O (stereo not drawn) [3-Amino-4-methylpentanoic acid],-0.4,
C[C@@H]1O[C@@H](OC[C@H]2O[C@@H](Oc3cc(O)c4c(c3)O[C@H](c3ccc(O)cc3)CC4=O)[C@H](O)[C@@H](O)[C@@H]2O)[C@H](O)[C@H](O)[C@H]1O [Narirutin],-3.5,
C[C@@H]1O[C@@H](O[C@H]2[C@H](O[C@H]3CC[C@]4(C)[C@H]5CC=C6[C@@H]7CC(C)(C)CC[C@]7(C(=O)O)CC[C@@]6(C)[C@]5(C)CC[C@H]4C3(C)C)OC[C@H](O[C@@H]3O[C@H](CO)[C@@H](O)[C@H](O)[C@H]3O)[C@@H]2O)[C@H](O)[C@H](O)[C@H]1O [Hederacolchiside A1],-2.9,
CC(=O)Oc1ccc(/C=C/c2cc(OC(C)=O)cc(OC(C)=O)c2)cc1 [Triacetylresveratrol],1,
CC1=CC(=O)CC(C)(C)C1 [Isophorone],-0.1,
"OCc1ccc(CO)o1 [2,5-Furandimethanol]",4.4,
N[C@@H](CC(=O)O)C(=O)O [L-Aspartic acid],,0.2
Cc1ncc(CO)c(C(=O)O)c1O [4-Pyridoxic acid],-0.3,
Nc1ncc[nH]1 [2-Aminoimidazole],-1.5,
C[C@@H]1O[C@@H](O)[C@H](O)[C@H](O)[C@H]1O [α-L-Rhamnose monohydrate],2.9,
O=C1N[C@@H](Cc2ccccc2)C(=O)N2CCC[C@@H]12 [Cyclo(L-Phe-L-Pro)],1.4,

# Structural class, the entries above with four or more nitrogen atoms.
SMILES,OC43 Inhibition rate [%],"OC43 Inhibition rate (OC43 Inhibition rate, 24 h) [%]"
O=c1[nH]cnc2c1ncn2[C@@H]1O[C@H](COP(=O)(O)OP(=O)(O)OP(=O)(O)O)[C@@H](O)[C@H]1O [Inosine-5'-triphosphate (trisodium salt)],-2.1,
Nc1nc2c(ncn2[C@@H]2O[C@H](CO)[C@@H](O)[C@H]2O)c(=O)[nH]1 [Guanosine],-0.2,

# Reference: paper PMC12431657, “Discovery and mechanistic insights of dibenzoylmethane as a broad spectrum inhibitor of coronavirus” (PLOS Pathogens, 2025)
